{"source": "PubChem BioAssay AID1347075", "about": "(National Center for Advancing Translational Sciences (NCATS), 2019)", "note": "Screen size: about 400,000 compounds; about 5,500 (1.4%) were called active. This list was built around the results that the source calls inconclusive (neither active nor inactive); the mix of calls is not that of the screen. Calls follow the shape of the dose curve; as a rule, active = well fitted cell-killing curve with a large enough effect; inconclusive = small, poorly fitted or top-dose-only effect, or effect the other way; inactive = flat fitted curve, though single readings scatter. Potencies beside an inconclusive call are fits to weak or partial responses and may not hold up. % is scaled to controls: 0 for no effect and ±100 for the full control effect; potency is read from the fitted curve at half-maximal effect."}
{"experiment": "qHTS assay for MDR1-selective chemotherapeutics: Primary screen using the parental adenocarcinoma cell KB-3-1; also: nearly all actives have a fitted effect of over 60% in size", "settings": "KB-3-1 viability, CellTiter-Glo ATP luminescence, 72 h; activity change, negative = cytotoxic: at 46.1 µM (top of the series)", "procedure,_shortened": "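Parental KB-3-1 viability, qHTS format: 72 h compound exposure, 37 °C; CellTiter-Glo; media-only wells and DMSO plates as controls; concentration-effect fits on corrected data.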"}
{"smiles": "Cc1cc(C)cc(NC(=O)[C@H]2O[C@@H]3OC(C)(C)O[C@@H]3[C@H]3OC(C)(C)O[C@H]32)c1", "Potency": "inconclusive: 32.6 µM [rising, single point]"}
{"smiles": "COc1ccc(CN2C(=O)CCCc3ccccc32)cc1", "Potency": "inconclusive: 16.4 µM [cytotoxic, single point]"}
{"smiles": "NC(=O)c1ccc(-n2nnnc2SCC(=O)Nc2ccccc2-c2ccccc2)cc1", "Potency": "inactive"}
{"smiles": "O=[N+]([O-])c1ccc(O)c(-c2cc(C(F)(F)F)nc(-c3ccccc3)n2)c1", "Potency": "active: 1.46 µM"}
{"smiles": "O=C(Nc1ccc(OC(F)(F)F)cc1)N1CCN(c2ccnc3cc(Cl)ccc23)CC1", "Potency": "inconclusive: 23.1 µM [cytotoxic, single point]"}
{"smiles": "CCOc1ccc(NC2c3ccccc3C(=O)N2Cc2ccc3c(c2)OCO3)cc1", "note": "(configuration not stated)", "Potency": "inconclusive: 18.4 µM [cytotoxic, single point]"}
{"smiles": "COCC(C)n1c(C)cc(C(=O)COC(=O)c2cc(=O)[nH]c3ccccc23)c1C", "note": "(configuration not stated)", "Potency": "inactive"}
{"smiles": "Cc1ccc(CCNC(=O)c2ccc3c(c2)N(Cc2cccc(F)c2)C(=O)c2ccccc2S3)cc1", "Potency": "inactive"}
{"smiles": "O=C(NC1CCCCC1)c1noc2c1CCCCC2", "Potency": "inactive"}
{"smiles": "Cc1ccc(NS(=O)(=O)c2csc(C(N)=O)c2)cc1C", "Potency": "inactive"}
{"smiles": "Cn1nc(C(=O)NNC(=O)c2ccccc2Br)c2ccccc2c1=O", "Potency": "inconclusive: 29.1 µM [rising, single point]"}
{"smiles": "CCOc1ccc(N2CC(C(=O)Nc3ccc4c(c3)OCCO4)CC2=O)cc1", "note": "(configuration not stated)", "Potency": "active: 5.17 µM"}
{"smiles": "COc1cc(SC)ccc1C(=O)Nc1ccc2ncccc2c1", "Potency": "inconclusive: 0.184 µM [rising, full curve]"}
{"smiles": "COc1ccc(/C(N)=N/OC(=O)Cc2ccc(OC)c(OC)c2)cc1", "Potency": "inconclusive: 20.6 µM [cytotoxic, single point]"}
{"smiles": "CCCCCCCNC(=O)C1(CC2CC(c3ccccc3)=NO2)CCN(C(=O)c2ccccc2)CC1", "note": "(configuration not stated)", "Potency": "inactive"}
{"smiles": "Fc1ccc(-c2nc(-c3cccs3)[nH]c2-c2ccc(F)cc2)cc1", "Potency": "active: 18.4 µM"}
{"smiles": "CCOC(=O)c1ccc(NC(=O)C2=C(C)C(=O)OC23CCN(C(C)C)CC3)cc1", "Potency": "inactive"}
{"smiles": "CCn1c(SCC(=O)N2CCC(C)CC2)nnc1-c1ccco1", "Potency": "inactive"}
{"smiles": "Cc1ccc(-n2ncc(C(=O)NCCN3CCC(Cc4ccccc4)CC3)c2C2CCN(C(=O)OC(C)(C)C)CC2)cc1", "Potency": "inconclusive: 16.4 µM [cytotoxic, single point]"}
{"smiles": "O=C(NCC(c1cccnc1)N1CCc2ccccc21)c1ccc(Cl)cc1", "note": "(configuration not stated)", "Potency": "inconclusive: 10.3 µM [cytotoxic, partial curve]"}
{"smiles": "CNC(=O)c1ccc(Nc2nc(-c3ccccc3)nc3ccccc23)cc1", "Potency": "inactive"}
{"smiles": "CC1C(=O)N2CCCc3cc(NC(=O)C(=O)NCc4ccc5c(c4)OCO5)cc1c32", "note": "(configuration not stated)", "Potency": "inconclusive: 18.4 µM [rising, single point]"}
{"smiles": "Cn1ncc(Cl)c1C(=O)N1CCN(S(=O)(=O)c2cccs2)CC1", "Potency": "inactive"}
{"smiles": "Cc1ccc(C2=CC(c3ccccc3)n3ncnc3N2)cc1", "note": "(configuration not stated)", "Potency": "inactive"}
{"smiles": "COc1ccc(-c2cc(C(F)(F)F)nc(SCC(=O)NC(C)c3ccccc3)n2)cc1", "note": "(configuration not stated)", "Potency": "inactive"}
{"smiles": "COc1ccc(/C=C2\\SC(=Nc3ccccc3OC)NC2=O)cc1", "Potency": "inconclusive: 29.1 µM [cytotoxic, single point]"}
{"smiles": "CSC(=NC(C)c1ccccc1)NS(=O)(=O)c1cccs1", "note": "(configuration not stated)", "Potency": "inconclusive: 23.1 µM [cytotoxic, partial curve, poor fit]"}
{"smiles": "COc1ccc(S(=O)(=O)N(CC(=O)Nc2ccc(Br)cc2)Cc2ccccc2)cc1", "Potency": "inactive"}
{"smiles": "CNC(C)C(=O)NC(C(=O)N1CCCC1C(=O)NC1CCCc2ccccc21)C(C)C", "note": "(configuration not stated)", "Potency": "inactive"}
{"smiles": "CN(C)c1ccc(CNCCC(Cc2ccccc2)c2ccco2)cc1", "note": "(configuration not stated)", "Potency": "inconclusive: 20.6 µM [cytotoxic, partial curve, poor fit]"}
{"smiles": "CN1CCS/C1=C/C=C1/SC(=S)N(Cc2ccccc2)C1=O", "Potency": "inconclusive: 0.0065 µM [cytotoxic, full curve]"}
{"smiles": "O=c1c2ccccc2cnn1-c1nc2ccccc2[nH]1", "Potency": "inconclusive: 1.64 µM [cytotoxic, full curve, poor fit]"}
{"smiles": "COc1ccc(CN(C)C(=O)c2cccc(C(=O)N(C)Cc3ccc(OC)cc3)c2)cc1", "Potency": "inconclusive: 29.1 µM [cytotoxic, partial curve, poor fit]"}
{"smiles": "CCc1cccc(NC(=O)C2CCN(S(=O)(=O)c3ccc4c(c3)NC(=O)CO4)CC2)c1", "Potency": "inactive"}
{"smiles": "CCCn1c(SC(C)C(=O)N2CCOCC2)nc2ccc(Br)cc2c1=O", "note": "(configuration not stated)", "Potency": "inconclusive: 5.17 µM [rising, full curve]"}
{"smiles": "O=C(Nc1c2c(nn1-c1ccc(Cl)cc1)CS(=O)(=O)C2)c1ccc(Br)cc1", "Potency": "inactive"}
{"smiles": "NC(=O)c1c(-c2ccc(Cl)cc2Cl)csc1NC(=O)Cc1ccccc1", "Potency": "inconclusive: 2.59 µM [cytotoxic, partial curve, poor fit]"}
{"smiles": "N/C(=N\\NC(=O)c1ccc(Cl)cc1)c1cnccn1", "Potency": "inconclusive: 29.1 µM [cytotoxic, single point]"}
{"smiles": "CC(NC(=O)Cc1ccc(S(=O)(=O)N2CCCCC2)cc1)c1ccccc1", "note": "(configuration not stated)", "Potency": "inactive"}
{"smiles": "Cn1c(C(=O)N2CCN(c3ncccn3)CC2)cc2c(=O)n(C)c3ccccc3c21", "Potency": "inactive"}
{"smiles": "O=S(=O)(Nc1ccccc1N1CCCCC1)c1ccc(Cl)s1", "Potency": "active: 13 µM"}
{"smiles": "CCOC(=O)C1=C(N)Oc2cc(O)ccc2C1c1cccc([N+](=O)[O-])c1", "note": "(configuration not stated)", "Potency": "inconclusive: 18.4 µM [cytotoxic, single point]"}
{"smiles": "O=C(CNC(=S)NC(=O)C1CCCCC1)c1ccccc1", "Potency": "inconclusive: 9.2 µM [rising, partial curve, poor fit]"}
{"smiles": "COc1cc(OC)c(C(=O)Nc2cc(Cl)ccc2-n2cncn2)cc1OC", "Potency": "inactive"}
{"smiles": "O=c1c2ccccc2nc(/C=C/c2ccc(Br)cc2)n1CCCO", "Potency": "inactive"}
{"smiles": "NCC12CC3CC(C1)CC(c1ccc(Br)cc1)(C3)C2", "Potency": "inconclusive: 29.1 µM [cytotoxic, single point]"}
{"smiles": "CCOC(=O)c1c(-c2ccc(OC)cc2)csc1NC(=O)CSc1ccccc1", "Potency": "inconclusive: 14.6 µM [cytotoxic, partial curve]"}
{"smiles": "c1ccc(CC[C@@H]2CC[C@@H](CCc3ccccc3)N2)cc1", "Potency": "inactive"}
{"smiles": "Cc1ccsc1C1CC(=O)Nc2ccccc2S1", "note": "(configuration not stated)", "activity change, negative = cytotoxic": "inconclusive: -50.8%"}
{"smiles": "O=C(Nc1nc2c(F)cc(F)cc2s1)C1CC1", "Potency": "inconclusive: 0.0116 µM [cytotoxic, full curve, poor fit]"}
{"smiles": "NC(=O)[C@@H]1CCOc2c(F)cc([N+](=O)[O-])cc2C(=O)N[C@@H](CO)C(=O)NCC(=O)N1", "Potency": "inconclusive: 9.2 µM [rising, partial curve, poor fit]"}
{"smiles": "CCCC(=O)N1CCN(c2nc(CC(C)C)c3c(c2C#N)CCC3)CC1", "Potency": "inconclusive: 18.4 µM [cytotoxic, partial curve, poor fit]"}
{"smiles": "CCOc1ccc2nc(NC3=NC(C)(C)C=C(C)N3)nc(C)c2c1", "Potency": "inconclusive: 29.1 µM [cytotoxic, single point]"}
{"smiles": "COc1ccc(OCC(=O)NNC(=S)NC(=O)c2ccc(Br)o2)cc1", "Potency": "inconclusive: 0.0184 µM [cytotoxic, full curve]"}
{"smiles": "CCOC(=O)c1sc(NC(=O)CC(C)c2ccccc2)nc1C", "note": "(configuration not stated)", "Potency": "inconclusive: 20.6 µM [cytotoxic, single point]"}
{"smiles": "Cc1ccc2sc(-c3ccc(NC(=O)c4cc(-n5cnnc5)ccc4Cl)cc3)nc2c1", "Potency": "inconclusive: 9.2 µM [cytotoxic, partial curve]"}
{"smiles": "CCCCCc1ccc(-c2cn(Cc3cccc(OC)c3)nn2)cc1", "activity change, negative = cytotoxic": "inconclusive: -15.8%"}
{"smiles": "CCOC(=O)[C@]12CCCC=C1N(Cc1cccc3ccccc13)C(=O)[C@H](CC(=O)NCc1ccc(OC)c(OC)c1)C2", "Potency": "inconclusive: 18.4 µM [cytotoxic, single point]"}
{"smiles": "CCc1ccc(NC(=O)c2cc(=O)c3ccc(C)c(C)c3o2)cc1", "Potency": "inactive"}
{"smiles": "Cc1nn(Cc2ccccc2)c(C)c1/C=N/NC(=O)CNc1cccc(C(F)(F)F)c1", "Potency": "inconclusive: 29.1 µM [cytotoxic, single point]"}
{"smiles": "CCCCCOc1ccc(/C=C/C(=O)Nc2sc3c(c2C(=O)OCC)CCC3)cc1OC", "Potency": "inactive"}
{"smiles": "CCCCOc1cccc(C2c3c(-c4cc(C)ccc4O)n[nH]c3C(=O)N2CCOC)c1", "note": "(configuration not stated)", "Potency": "inconclusive: 25.9 µM [cytotoxic, single point]"}
{"smiles": "COc1ccccc1CNC(=O)CN1C(=O)NC2(CCCc3ccccc32)C1=O", "note": "(configuration not stated)", "Potency": "inactive"}
{"smiles": "O=C(c1ccc(CNS(=O)(=O)c2ccccc2)cc1)N1CCN(c2ccccn2)CC1", "Potency": "inactive"}
{"smiles": "C#CCOCCOCCOCCNc1nc(N2CCN(C(=O)C(Cc3cc4ccccc4[nH]3)n3cc(C(N)Cc4ccc(O)cc4)nn3)CC2)nc(N2CCN(C(=O)C(Cc3cc4ccccc4[nH]3)n3cc(C(N)Cc4ccc(O)cc4)nn3)CC2)n1", "note": "(configuration not stated)", "Potency": "inactive"}
{"smiles": "CS(=O)(=O)N1CCC(Oc2cccc(C(=O)NCCCC3CCCC3)c2)CC1", "Potency": "inconclusive: 29.1 µM [cytotoxic, single point]"}
{"smiles": "CC[N+](C)(CC)CCC(c1ccccc1)C1CCCCC1", "note": "(configuration not stated)", "Potency": "inconclusive: 25.9 µM [cytotoxic, single point]"}
{"smiles": "Clc1ccc(N2N=C(c3cccs3)CC2c2ccco2)cc1", "note": "(configuration not stated)", "Potency": "inactive"}
{"smiles": "CCOC(=O)c1[nH]c(C)c(CN(C(C)=O)c2ccc(OCC)cc2)c1C", "Potency": "inconclusive: 20.6 µM [cytotoxic, single point]"}
{"smiles": "O=C(C1CCCN(Cc2ccccc2F)C1)N1CCCCC1", "note": "(configuration not stated)", "activity change, negative = cytotoxic": "inconclusive: -1.94%"}
{"smiles": "COc1ccc(NCc2ccc([N+](=O)[O-])s2)cc1", "Potency": "inactive"}
{"smiles": "N#Cc1c(N)n(C2CCCCC2)c2nc3ccccc3nc12", "Potency": "inconclusive: 29.1 µM [cytotoxic, single point]"}
